Experimental data from PubChem BioAssay AID1439 (NMMLSC, 2008).
The campaign covered roughly 220,000 compounds. About 770 (0.35%) were called active. The shares of active, inactive and inconclusive entries below differ from those in the screen. Cut-off read from the data, not from the text of the source: active = binding response below about 49% or above about 150%; inconclusive = no clear call, values can overlap the other calls; inactive = in between.

The chains behind the UniProt entries cited, without tags or fusion partners.
UniProt P09471, whole entry, looked up: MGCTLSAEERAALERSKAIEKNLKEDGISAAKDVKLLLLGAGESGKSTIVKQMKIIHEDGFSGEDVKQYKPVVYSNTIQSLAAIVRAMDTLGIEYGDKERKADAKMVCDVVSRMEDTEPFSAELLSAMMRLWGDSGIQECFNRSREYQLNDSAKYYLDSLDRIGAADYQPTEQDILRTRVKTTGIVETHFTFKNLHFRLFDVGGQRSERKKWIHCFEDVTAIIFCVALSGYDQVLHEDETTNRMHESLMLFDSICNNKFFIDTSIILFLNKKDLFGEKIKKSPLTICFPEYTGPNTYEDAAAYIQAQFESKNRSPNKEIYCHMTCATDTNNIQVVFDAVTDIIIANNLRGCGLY

Target: Guanine nucleotide-binding protein G(o) subunit alpha (Homo sapiens) (UniProt P09471)
Assay: RGS7-Galphao binding modulators, primary screen, biochemical, multiplexed bead flow cytometry (AID 1439);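 note: fluorescent Galphao held in activated GDP-AlF4 state binding bead-coupled RGS7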
Settings: at 10 µM, actives lie on both sides

Compound	binding response (% of control)
Cc1ccc(C(=O)N2CCN(c3ccccc3Cl)CC2)cc1[N+](=O)[O-]	inconclusive: 81.1%
CCn1cc(C(=O)O)c(=O)c2cc(F)c(N3CCN(C(=S)NC(=O)c4ccccc4)CC3)cc21	inconclusive: 71.1%
S=c1[nH]nc(-c2n[nH]c3c2CCC3)n1/N=C/C=C/c1ccco1	inconclusive: 86.4%
CC(C)[C@H](NC(=O)c1ccc(Cl)c([N+](=O)[O-])c1)C(=O)O	inconclusive: 173%
NCCCCCC(=O)N/N=C/c1ccc2nccnc2c1	inconclusive: 114%
COc1ccc(C(=O)c2cc3cccc(OC)c3o2)cc1	inconclusive: 104%
CC(C)(C)c1ccc(C(=O)/C(C#N)=C/c2cccs2)cc1	inconclusive: 101%
O=C(O)c1ccc(N2C(=O)c3cccnc3C2=O)cc1	inconclusive: 84.9%
Cc1cc(NC(=O)Cn2nc(C)c([N+](=O)[O-])c2C)no1	inconclusive: 117%
COc1ccccc1NS(=O)(=O)c1cccc(NC(=O)c2[nH]c(C)c(C(C)=O)c2C)c1	inconclusive: 92.2%
Cn1cnnc1SCC(=O)Nc1ccccc1Oc1ccccc1	inconclusive: 105%
CCCCNc1nc(N)ncc1[N+](=O)[O-]	inconclusive: 205%
COc1cc(CCC(=O)OCC(=O)Nc2ccccc2C#N)cc(OC)c1OC	inactive: 108%
CC(C)(C)c1cc(C(=O)NNC(=O)c2ccc(Cl)cc2)no1	inconclusive: 132%
CCOC(=O)c1ccc(Nc2sc(C(=O)c3cccc([N+](=O)[O-])c3)c(N)c2C#N)cc1	inconclusive: -7.37%
O=C(Nc1ccc(Cl)cc1)Nc1ccc(Oc2cccnc2)nc1	inconclusive: 93.3%
CCC1=C(OC(=O)N(CC)CC)N2C(=O)OC(=NCCc3c[nH]c4ccccc34)[C@]2(Cc2ccccc2)[C@H]2C1=CC[C@H]1C(=O)N(c3ccccc3)C(=O)[C@H]12	inconclusive: 105%
Cc1ccc(S(=O)(=O)N(C)C)cc1NC(=O)c1cc(C(C)(C)C)nn1Cc1ccccc1	inconclusive: 49.5%
O=C(/C=C/c1ccc(O)c(O)c1)O[C@H](Cc1ccc(O)c(O)c1)C(=O)O	inconclusive: 20.4%
CCC(=O)N(CCC1(C(C)C)CCOC(C)(C)C1)C(C)c1cccs1 (stereo unspecified)	inconclusive: 77.1%
O=C(COc1ncnc2sccc12)NC1CCS(=O)(=O)C1 (stereo unspecified)	inconclusive: 134%
CCOC(=O)C1CCN(C(=O)COc2ccc([N+](=O)[O-])cc2)CC1	inconclusive: 130%
COc1ccc(CCNC(=O)C2CC(c3cccc(F)c3)=NO2)cc1 (stereo unspecified)	inconclusive: 125%

Compound	binding response (% of control)
O=C(Nc1cccc(/C=C/c2nc3ccccc3c(=O)[nH]2)c1)c1ccccc1Cl	inconclusive: 98%
COc1cccc(CNC23CC4CC(CC(C4)C2)C3)c1OCc1ccccc1	inactive: 90.2%
CCOC(=O)c1ccc(OCC(=O)c2ccc(O)cc2O)cc1	inactive: 89.8%
Cc1ccc(NC(=S)N2CCCCC2)cc1C	inconclusive: 143%
O=C(O)CCC(=O)NNc1nc2ccccc2nc1-c1ccccc1	inactive: 101%
CN(C)C(=O)COC(=O)[C@H](Cc1ccccc1)NC(=O)c1ccco1	inactive: 109%
O=C(O)C1CCC(NSc2ccccc2[N+](=O)[O-])CC1 (stereo unspecified)	inconclusive: 132%
Nc1nc(=S)c2ncn(C3CCCC3)c2[nH]1	inconclusive: 75.2%
C/C(=N\Nc1cccc2cccnc12)c1ccc(C)cc1	inconclusive: 76.8%
CC(C)c1ccc(N2C(=O)CC(NNC(=O)c3cccnc3)C2=O)cc1 (stereo unspecified)	inconclusive: -56.9%
O=C(O)/C=C/C(=O)Nc1c(F)cccc1F	inconclusive: 139%
Cn1ncc(C(=O)Nc2ccc(Cl)cc2)c1C(F)(F)F	inconclusive: 105%
O=c1c(Cc2ccccc2)c(O)c2cccc3c4c(n1c23)CCCC4	inconclusive: 97.2%
COc1ccc(-c2nnc(SCc3nc4ccccc4c(=O)[nH]3)o2)cc1	inconclusive: -200%
COc1ccc(SC[C@H](Cc2ccccc2)N2CCN(CCc3ccccc3)CCC2=O)cc1	inconclusive: 100%
COC(=O)c1sc(C(C)(C)C)cc1CSc1ccccc1	inconclusive: 102%
CN(Cc1nc(-c2cccs2)no1)CC(O)c1ccccc1 (stereo unspecified)	inactive: 96.7%
ClC(/C=N/n1cnnc1)=C/c1ccccc1	inconclusive: 65%
CC(C)(C)c1nnc(NC(=O)Nc2ccc(Cl)cc2)s1	inconclusive: 101%
O=C(COC(=O)CCc1nc2ccccc2c(=O)[nH]1)Nc1ccc(N2CCOCC2)cc1	inconclusive: 124%
O=C(c1nc2ccccc2[nH]1)c1ccccc1[N+](=O)[O-]	inconclusive: -118%
O=C(N/N=C/c1cc(Cl)cc([N+](=O)[O-])c1O)C1CC1	inconclusive: 24.1%
O=C(C[n+]1ccc(C(=O)NCCCO)cc1)c1cccc(Br)c1	inconclusive: 124%

Compound	binding response (% of control)
O=C(CNC(=O)c1ccc(Cl)cc1Cl)Nc1ccc(F)cc1	inconclusive: 84.4%
O=C(NCC(c1ccc(F)cc1)N1CCOCC1)c1ccc(C(=O)c2ccccc2)cc1 (stereo unspecified)	inconclusive: 111%
COc1ccccc1-n1c(Cc2cccs2)n[nH]c1=S	inconclusive: 86.4%
Cc1cccc(-c2noc(CCC(=O)Nc3ccc(C(N)=O)cc3)n2)c1	inconclusive: 123%
O=C(c1ccc(S(=O)(=O)c2ccc(Cl)cc2)cc1)N1CCOCC1	inactive: 104%
O=C(CNC(=O)c1cccs1)NCC(=O)OCc1c(F)cccc1Cl	inconclusive: 110%
COC(=O)c1cc(NC(=O)c2ccc(C)cc2)c(=O)oc1C	inconclusive: 102%
CC1(C)c2ccccc2N2CC(=O)N[C@@]21/C=C/C=C/c1ccccc1	inconclusive: 113%
O=C(O)CNC(=O)/C(=C\c1cccc([N+](=O)[O-])c1)NC(=O)c1ccco1	inconclusive: 98.9%
CCc1ccc2nc(/N=C(\N)NC(=O)c3ccccc3)nc(C)c2c1	inconclusive: 114%
CCN=C1S/C(=C\c2sccc2C)C(=O)N1CC	inactive: 108%
COc1ccc(OC)c2c(=O)cc(C(=O)O)[nH]c12	inconclusive: 113%
O=C(N1CCN(c2ccccc2)CC1)C12CC3CC(CC(C3)C1)C2	inactive: 104%
Cc1ccc(NC(=O)c2nsc(Cl)c2Cl)cc1	inconclusive: 105%
CSC1=NSC2=NC(=O)/C(=C/c3coc4ccc(O)cc4c3=O)C(=N)N12	inactive: 92%
COC(=O)c1ccc(NC(=O)C2CCCN(S(C)(=O)=O)C2)cc1 (stereo unspecified)	inconclusive: 89.6%
Cc1ccc2c(c1)Oc1ccc(NC(=O)CCCl)cc1C(=O)N2	inconclusive: 90.7%
O=C(NCc1ccccc1Cl)c1ccc(-c2ccccc2)cc1	inactive: 102%
N/C(=N\OC(=O)C12CC3CC(CC(C3)C1)C2)c1ccncc1	inconclusive: 101%
CN1C(=O)C(CCC(N)=O)NC1=S (stereo unspecified)	inconclusive: 89.8%
Cc1csc2c(=O)sc(NC(=O)c3ccc(F)cc3Cl)nc12	inconclusive: 90.5%
Cc1cccc(N(CC(=O)NCc2ccc(F)cc2)C(=O)c2csnn2)c1C	inactive: 101%
O=C(NCc1cccnc1)c1cnc2ccccc2n1	inconclusive: 167%

In a second layout: results already given

| Compound | binding response (% of control) |
| --- | --- |
| CCCCNc1nc(N)ncc1[N+](=O)[O-] | inconclusive: 205% |
| CCOC(=O)c1ccc(Nc2sc(C(=O)c3cccc([N+](=O)[O-])c3)c(N)c2C#N)cc1 | inconclusive: -7.37% |
| O=C(COc1ncnc2sccc12)NC1CCS(=O)(=O)C1 (stereo unspecified) | inconclusive: 134% |
| O=C(O)C1CCC(NSc2ccccc2[N+](=O)[O-])CC1 (stereo unspecified) | inconclusive: 132% |
| CN1C(=O)C(CCC(N)=O)NC1=S (stereo unspecified) | inconclusive: 89.8% |

Additional compounds:

Compound	binding response (% of control)
O=C(Nc1ccc2oc(=O)ccc2c1)c1ccc(-c2cccc(Cl)c2)o1	inconclusive: 62.2%
N#C/C(=N\Nc1ccc(Cl)c(Cl)c1)C(=O)C1CC1	inconclusive: 68.8%
O=C(Oc1c(-c2ccccc2)c(=O)n2c3c(cccc13)CC2)c1ccc(F)cc1	inconclusive: 519%
Cc1ccc(NC(=O)c2ccc(COc3ccc4c(c3)CCC4)cc2)c(C)c1	inactive: 99.1%
COc1ccc(-c2ccc(SCC(=O)c3ccc(F)cc3)nn2)cc1OC	inconclusive: 98.5%
Cc1nnc(SCC(=O)NC23CC4CC(CC(C4)C2)C3)s1	inconclusive: 106%
CCOC(=O)CC(/C(C)=N\O)c1ccccc1 (stereo unspecified)	inactive: 111%
O=C(NNc1cccc(Cl)c1)c1cccnc1Oc1ccccc1	inconclusive: 65.7%
N/C(=N\OC(=O)c1ccc(Cl)c(Cl)c1)c1cccc(CSc2ccccn2)c1	inconclusive: -204%
COc1cc(/C=N/NC(=S)NC2CC3C=CC2C3)cc(OC)c1OC (stereo unspecified)	inconclusive: 108%
Cc1cc(C(=O)Nc2ccc(S(=O)(=O)N3CCOCC3)cc2)c(C)o1	inconclusive: 104%
S=C(N/N=C1\CCc2ccccc21)NC1CCCCC1	inconclusive: 122%
COC(=O)c1cn(-c2nc(C)c3c(n2)CCC3)nn1	inconclusive: 102%
COc1ccc(C(CNC(=O)c2cc3ccccc3o2)N2CCCCC2)cc1 (stereo unspecified)	inactive: 103%
NS(=O)(=O)c1ccc(CCNC(=O)c2ccc(Cn3c(=O)[nH]c4ccccc4c3=O)cc2)cc1	inactive: 102%
S=C(NCC1CC1)N/N=C/c1ccccc1Cl	inconclusive: 67.1%
Cc1cccnc1NC(=O)c1ccc(S(=O)(=O)N2CC(C)OC(C)C2)cc1 (stereo unspecified)	inactive: 103%
CC(C)(C)Sc1ccc([N+](=O)[O-])cc1C(=O)Nc1ccncc1	inconclusive: 599%
O=C(CN1CCCC1)Nc1ccccc1C(=O)c1ccccc1	inconclusive: 108%
Cc1[nH]nc2c1C(c1c[nH]c3ccccc13)C(C#N)=C(N)O2 (stereo unspecified)	inconclusive: 102%
Cn1c(CCNC(=O)c2ccccc2F)nnc1SCC(=O)Nc1ccccc1F	inconclusive: 113%
NNC(=O)c1oc2nc(-c3ccco3)cc(-c3ccco3)c2c1N	inconclusive: 90.2%
